Experimental data published in patent US20190276551A1.
Results are given in words; binding and its absence hold for the method and conditions named. Some binding calls cover weakened binding; strength is not graded here. Values belong to the binder of their own block, whether it stands above or below them.

Amino acid sequences for entries named in this document (tags omitted). A change or cut given only in a name is not applied to a line headed by its entry.
UniProt P28907: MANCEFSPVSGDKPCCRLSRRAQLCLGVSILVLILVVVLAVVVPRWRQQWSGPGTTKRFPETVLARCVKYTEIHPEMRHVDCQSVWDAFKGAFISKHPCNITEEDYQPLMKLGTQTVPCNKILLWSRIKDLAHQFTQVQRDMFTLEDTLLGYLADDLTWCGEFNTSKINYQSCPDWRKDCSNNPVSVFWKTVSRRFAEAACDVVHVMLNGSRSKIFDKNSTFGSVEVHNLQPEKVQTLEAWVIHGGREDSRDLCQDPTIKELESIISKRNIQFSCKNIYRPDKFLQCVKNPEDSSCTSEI

How the values were obtained:
[1] = target: human CD38 on cells (human) (UniProt P28907); experiment: binding assays of Example 4
[2] = target: soluble, non-glycosylated, recombinant human CD38 (human) (UniProt P28907); experiment: micro-scale thermophoresis

binding [1]: binds
B1: WF139 (VHH)
VHH: SGGGLVQAGGSQRLSCAASGHTFSSYSMAWFRQAPGKEREFVAANIMSGTNTYYADSVRGRFTMSRDIAKNTVYLQMNSLKEEDTALYYCAAADRFRGWATWRDDPDQYDYWDQGTQVTVSS

binding [2]: binds
B2: MU397 (VHH)
VHH: DVQLQASGGGLVQAGGSLRLSCAPSGGTFDAYDMGWYREAPGKKRQFVAAVRSGGGTTRYADSVKGRFTISRDDAKDTVFLQMNSLKPEDTALYYCAADRWGLFSLSIATPTHWGQGTQVTVSS
